Data: US20050095674A1, “Cannabinoid receptor interacting proteins and methods of use” (priority 2003, published 2005)
Results are given in words; binding and its absence hold for the method and conditions named. For some of these results: In cells and extracts the contact can be indirect. Some results given as binding are weak or reduced against the parent protein; the word gives no strength. For some of these results: Tags and fused reporters may be left off the sequences shown.

Amino acid sequences for entries named in this document (tags omitted). Residues count along the entry.
UniProt P21554, residues 418-472: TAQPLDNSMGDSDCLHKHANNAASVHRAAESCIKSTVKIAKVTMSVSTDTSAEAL

Key:
[1] = biological target: amino acids at positions 418-472 of the human cannabinoid receptor (CB1) fused to the GALA DNA binding domain (human) (UniProt P04386+P21554); experiment: yeast two-hybrid, beta-galactosidase colour
[2] = biological target: GST fusion peptide of GST and amino acids at position 418-472 of the CB1 receptor (pGEX-4T-1) (human) (UniProt P21554); experiment: GST pull-down on Glutathione Sepharose-4B, Coomassie-stained SDS-PAGE
[3] = biological target: GST fusion peptide of GST and amino acids at position 418-472 of the CB1 receptor (pGEX-4T-1) (human) (UniProt P21554); experiment: GST pull-down on Glutathione Sepharose-4B
[4] = biological target: GST fusion peptide of GST and amino acids at position 418-472 of the CB1 receptor (pGEX-4T-1) (human) (UniProt P21554); experiment: GST pull-down on Glutathione Sepharose-4B, Western blot with S-tag probe

B1: CRIP1b amino acids 34-128 of SEQ ID NO:2 (part of exon 1 + exon 2 + exon 3), yeast two-hybrid clone (protein, not shown: large carriers)
chain: QNRTIKLLTGSSYKVEVKIKPSTLQVENISIGGVLVPLELKSKEPDGDRVVYTGTYDTEGVTPTKSGERQPIQITMPECLEQRPQEISLTYECEE
[1]
  binding: binds

B2: S-tagged CRIP1b (amino acids at positions 34-128) expressed from pET30C in BL21(DE3) E. coli (protein, not shown: small tags and cut ends)
chain: QNRTIKLLTGSSYKVEVKIKPSTLQVENISIGGVLVPLELKSKEPDGDRVVYTGTYDTEGVTPTKSGERQPIQITMPECLEQRPQEISLTYECEE
[2]
  binding: binds
[3]
  binding: binds
[4]
  binding: binds
